According to patent US20080280308A1:
No constants are given. Whether binding was seen depends on the method and setting. Some entries that bind do so weakly or less than the wild type.

T1: human thrombin receptor (PAR1) (human) (UniProt P25116)
T1 sequence (looked up): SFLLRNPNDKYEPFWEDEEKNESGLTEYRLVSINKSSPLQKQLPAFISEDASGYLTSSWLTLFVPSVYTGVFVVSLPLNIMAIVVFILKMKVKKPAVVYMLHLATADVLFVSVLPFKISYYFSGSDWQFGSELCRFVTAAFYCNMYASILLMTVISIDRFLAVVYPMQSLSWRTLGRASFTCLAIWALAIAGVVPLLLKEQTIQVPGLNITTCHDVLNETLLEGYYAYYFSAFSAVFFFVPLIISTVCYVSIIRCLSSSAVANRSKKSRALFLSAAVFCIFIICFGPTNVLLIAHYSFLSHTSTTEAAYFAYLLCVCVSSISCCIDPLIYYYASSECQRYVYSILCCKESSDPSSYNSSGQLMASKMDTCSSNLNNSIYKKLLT


The binders below were run against T1, human thrombin receptor (PAR1) (human) (assay: panning, G11 library, Recomb/Reconst PAR1).

binding, binds:
LQLNVKEYNLV [R3-44 …]
LQLRVKEYKRG
LQLRYKCYNLV [R2-21 …]
LQIYLKGYNLV
LQFNLNDCNLV [R2-16 …]
LQRNKKQYNLG [R2-17 …]
LQRNKNQYNLG
LQQSLIEYNLL [R3-37 …]
LRLDFSEKQLV
LYLDLKEYCLF
HQLDLLEYNLG [R2-20 …]
VQVKLKEYNLV
MKLKLKEDNLV [R2-18 …]
SAKELDQYNLG
VHVKLKEYNLV [R3-38 …]

What follows are binders tested against T1, human thrombin receptor (PAR1) (human) (assay: panning, LacI-displayed Gq library, purified PAR1 in lipid vesicles).

binding, binds:
LQLNVKEYNLV [R3-44 …]
LQLRYKCYNLV [R2-21 …]
LQFNLNDCNLV [R2-16 …]
LQRNKKQYNLG [R2-17 …]
LQQSLIEYNLL [R3-37 …]
HQLDLLEYNLG [R2-20 …]
MKLKLKEDNLV [R2-18 …]
VHVKLKEYNLV [R3-38 …]
LRIYLKGYNLV [R3-46 …]

Each binder was assayed against T1, human thrombin receptor (PAR1) (human) (assay: panning, LacI-displayed Gq library, Sf9 PAR1 membranes).

binding, binds:
LQLNLKVYNLV [S1-18 …]
LQLKHKENNLM [S2-26 …]
LQKNLKEYNMV [S3-6 …]
LQVNLEEYHLV [S2-36 …]
LHLNMAEVSLV [S2-30 …]
MNLTLKECNLV [S3-15 …]
MKLNVSESNLV [S1-13 …]
LKRYLKESNLV [S3-10 …]
LELNLKVYNLF [S1-23 …]
LQMYLRGYNLV [S3-8 …]

The binders below were run against T1, human thrombin receptor (PAR1) (human) (assay: panning, G11 library, SF9 EXPRESSED PAR1).

binding, binds:
LQLNLKVYNLV [S1-18 …]
LQLKHKENNLM [S2-26 …]
LQKNLKEYNMV [S3-6 …]
LQVNLEEYHLV [S2-36 …]
LFLNLKEYSLV
LELNLKVYNLV
LPLNPKEYSLV
LPLNLIDFSLM
LPRNLKEYDLG
LRLNDIEALLV
LVLNRIEYNLL
LHLNMAEVSLV [S2-30 …]
MNLTLKECNLV [S3-15 …]
MKLNVSESNLV [S1-13 …]
LKRYLKESNLV [S3-10 …]
LKRKLKESNMG
LKRKVKEYNLG
LELNLKVYNLF [S1-23 …]
LQMYLRGYNLV [S3-8 …]

What follows are binders tested against T1, human thrombin receptor (PAR1) (human) (assay: panning, LacI-displayed Gq library, CHO PAR1 membranes).

binding, binds:
LQLKRGEYILV [C4-5 …]
LQLNRNEYYLV [C4-19 …]
LRLNGKELNLV [C5-10 …]

Each binder was assayed against T1, human thrombin receptor (PAR1) (human) (assay: panning, G11 library, CHO EXPRESSED PAR1).

binding, binds:
LQLNVKEYNLV [R3-44 …]
LQLNRKNYNLV
LQLRVKEYKRG
LQLRYKCYNLV [R2-21 …]
LQLDLKESNMV
LQIYLKGYNLV
LQFNLNDCNLV [R2-16 …]
LQRNKKQYNLG [R2-17 …]
LQQSLIEYNLL [R3-37 …]
LQYNLKESFVV
HQLDLLEYNLG [R2-20 …]
LQRDHVEYKLF
VQVKLKEYNLV
LVIKPKEFNLV
MKLKLKEDNLV [R2-18 …]
IQLNLKNYNIV
MQLNLKEYNLV
QLLNQYVYNLV
WRLSLKVYNLV
LQLKRGEYILV [C4-5 …]
LQLNRNEYYLV [C4-19 …]
LRLNGKELNLV [C5-10 …]
